No constants are given. Whether binding was seen depends on the method and setting. In cells and extracts the contact can be indirect. Some results given as binding are weak or reduced against the parent protein; the word gives no strength. Where a sequence is shown, tags or fusion partners need not be part of it.
Biological target: T1, Strep-Csl4 exosome of Sulfolobus solfataricus, reconstituted (His6-Rrp41, His6-Rrp42 and Strep-tagged Csl4) (Sulfolobus solfataricus) (UniProt Q9UXC2+Q9UXC0+Q980J9)
T1 sequence 1: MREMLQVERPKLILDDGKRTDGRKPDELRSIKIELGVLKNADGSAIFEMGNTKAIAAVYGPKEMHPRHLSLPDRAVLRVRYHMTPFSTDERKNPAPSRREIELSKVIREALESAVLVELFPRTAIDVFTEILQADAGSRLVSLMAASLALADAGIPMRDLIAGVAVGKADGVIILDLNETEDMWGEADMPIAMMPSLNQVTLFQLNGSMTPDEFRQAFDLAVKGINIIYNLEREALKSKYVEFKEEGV
T1 sequence 2: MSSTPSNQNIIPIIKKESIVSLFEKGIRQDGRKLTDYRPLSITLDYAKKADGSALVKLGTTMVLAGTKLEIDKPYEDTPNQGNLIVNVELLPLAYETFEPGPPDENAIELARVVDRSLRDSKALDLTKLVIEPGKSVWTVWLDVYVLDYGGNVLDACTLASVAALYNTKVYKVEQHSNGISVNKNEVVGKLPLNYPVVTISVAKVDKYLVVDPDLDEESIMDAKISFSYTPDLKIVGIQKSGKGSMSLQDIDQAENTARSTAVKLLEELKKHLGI
T1 sequence 3: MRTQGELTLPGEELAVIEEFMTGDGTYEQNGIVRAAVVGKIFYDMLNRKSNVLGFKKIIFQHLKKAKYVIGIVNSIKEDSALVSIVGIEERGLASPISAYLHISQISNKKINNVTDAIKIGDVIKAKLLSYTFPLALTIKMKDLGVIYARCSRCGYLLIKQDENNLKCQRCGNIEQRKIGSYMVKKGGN
Experiment: pull-down; reconstituted Strep-Csl4 exosome mixed with E. coli cell-free extract holding the DnaG variant; buffer P0 (10 mM Tris pH 8.0, 5 mM MgCl2, 0.5 mM EDTA, 200 mM NaCl, 5% glycerol, 0.05% Tween 20, 0.2 mM DTT), 2 h at room temperature; Strep-Tactin Sepharose, eluted with 5 mM D-desthiobiotin; SDS-PAGE with silver staining, western blot with DnaG-directed serum; only the target purified

binding: binds
B1: DnaG-K6AY7A (non-tagged NTD double mutant of DnaG) (protein, UniProt P95980 1-406)
chain: MSFQMAADIRLRFEVEGIVEKTDVIGAIFGQTENLFGDEFDLRELQDKGRLGRIIVEVKTKGGKSEGEIIIPSNLDRIETALIAAMVESVDKVGPYNSKFELIEIEDIRAEKLKKIIERAKGILSSWSKEKSLDIKEVINEISSAVKVGEITEYGPERLPAGPDVDKDPNLIIVEGRADVINLLRYGYKNVIAVEGATSRIPETLINLSKMKKTVIAFLDGDHGGDLILKELLSNNVKIDFVARAPIGREVEELTGKEIAKALSNMMPLTQYLKKVQEAEQAIAKNVIAKEEKPIQSETTQQVVQITLPQNILEEIKKLPGTLEGVLYDNNWNLIEKVQVRDIIPKLEAYEDNKVAYIIFDGVITQRLLDLASQKNIKMIIGARIGGINKRPQNVDILTFTDIISS
